# The entries are a selection whose mix differs from that of the whole data set.
# Chains of the proteins cited; added tags and fusions are not shown. Lines headed by an entry give the natural chain unless they say otherwise; changes in a name come on top.
# UniProt Q9Y371: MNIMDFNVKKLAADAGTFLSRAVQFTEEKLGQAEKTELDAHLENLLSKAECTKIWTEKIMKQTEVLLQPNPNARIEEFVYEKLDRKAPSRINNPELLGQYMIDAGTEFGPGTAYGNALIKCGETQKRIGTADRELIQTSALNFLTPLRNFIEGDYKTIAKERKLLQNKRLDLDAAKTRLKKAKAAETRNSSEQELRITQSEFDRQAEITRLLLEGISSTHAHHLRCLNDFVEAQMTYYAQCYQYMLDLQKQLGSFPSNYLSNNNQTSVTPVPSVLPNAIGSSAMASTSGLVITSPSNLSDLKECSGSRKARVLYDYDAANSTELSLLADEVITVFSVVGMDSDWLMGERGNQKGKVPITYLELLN
# UniProt Q9Y314: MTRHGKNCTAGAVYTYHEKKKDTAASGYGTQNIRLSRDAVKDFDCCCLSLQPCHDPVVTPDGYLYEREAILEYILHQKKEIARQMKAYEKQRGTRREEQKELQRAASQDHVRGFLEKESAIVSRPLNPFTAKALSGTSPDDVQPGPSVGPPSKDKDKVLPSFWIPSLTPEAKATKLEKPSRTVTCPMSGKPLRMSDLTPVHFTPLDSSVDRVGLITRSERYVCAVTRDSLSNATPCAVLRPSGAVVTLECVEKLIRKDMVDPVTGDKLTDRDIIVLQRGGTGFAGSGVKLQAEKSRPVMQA
# UniProt Q9ULT8: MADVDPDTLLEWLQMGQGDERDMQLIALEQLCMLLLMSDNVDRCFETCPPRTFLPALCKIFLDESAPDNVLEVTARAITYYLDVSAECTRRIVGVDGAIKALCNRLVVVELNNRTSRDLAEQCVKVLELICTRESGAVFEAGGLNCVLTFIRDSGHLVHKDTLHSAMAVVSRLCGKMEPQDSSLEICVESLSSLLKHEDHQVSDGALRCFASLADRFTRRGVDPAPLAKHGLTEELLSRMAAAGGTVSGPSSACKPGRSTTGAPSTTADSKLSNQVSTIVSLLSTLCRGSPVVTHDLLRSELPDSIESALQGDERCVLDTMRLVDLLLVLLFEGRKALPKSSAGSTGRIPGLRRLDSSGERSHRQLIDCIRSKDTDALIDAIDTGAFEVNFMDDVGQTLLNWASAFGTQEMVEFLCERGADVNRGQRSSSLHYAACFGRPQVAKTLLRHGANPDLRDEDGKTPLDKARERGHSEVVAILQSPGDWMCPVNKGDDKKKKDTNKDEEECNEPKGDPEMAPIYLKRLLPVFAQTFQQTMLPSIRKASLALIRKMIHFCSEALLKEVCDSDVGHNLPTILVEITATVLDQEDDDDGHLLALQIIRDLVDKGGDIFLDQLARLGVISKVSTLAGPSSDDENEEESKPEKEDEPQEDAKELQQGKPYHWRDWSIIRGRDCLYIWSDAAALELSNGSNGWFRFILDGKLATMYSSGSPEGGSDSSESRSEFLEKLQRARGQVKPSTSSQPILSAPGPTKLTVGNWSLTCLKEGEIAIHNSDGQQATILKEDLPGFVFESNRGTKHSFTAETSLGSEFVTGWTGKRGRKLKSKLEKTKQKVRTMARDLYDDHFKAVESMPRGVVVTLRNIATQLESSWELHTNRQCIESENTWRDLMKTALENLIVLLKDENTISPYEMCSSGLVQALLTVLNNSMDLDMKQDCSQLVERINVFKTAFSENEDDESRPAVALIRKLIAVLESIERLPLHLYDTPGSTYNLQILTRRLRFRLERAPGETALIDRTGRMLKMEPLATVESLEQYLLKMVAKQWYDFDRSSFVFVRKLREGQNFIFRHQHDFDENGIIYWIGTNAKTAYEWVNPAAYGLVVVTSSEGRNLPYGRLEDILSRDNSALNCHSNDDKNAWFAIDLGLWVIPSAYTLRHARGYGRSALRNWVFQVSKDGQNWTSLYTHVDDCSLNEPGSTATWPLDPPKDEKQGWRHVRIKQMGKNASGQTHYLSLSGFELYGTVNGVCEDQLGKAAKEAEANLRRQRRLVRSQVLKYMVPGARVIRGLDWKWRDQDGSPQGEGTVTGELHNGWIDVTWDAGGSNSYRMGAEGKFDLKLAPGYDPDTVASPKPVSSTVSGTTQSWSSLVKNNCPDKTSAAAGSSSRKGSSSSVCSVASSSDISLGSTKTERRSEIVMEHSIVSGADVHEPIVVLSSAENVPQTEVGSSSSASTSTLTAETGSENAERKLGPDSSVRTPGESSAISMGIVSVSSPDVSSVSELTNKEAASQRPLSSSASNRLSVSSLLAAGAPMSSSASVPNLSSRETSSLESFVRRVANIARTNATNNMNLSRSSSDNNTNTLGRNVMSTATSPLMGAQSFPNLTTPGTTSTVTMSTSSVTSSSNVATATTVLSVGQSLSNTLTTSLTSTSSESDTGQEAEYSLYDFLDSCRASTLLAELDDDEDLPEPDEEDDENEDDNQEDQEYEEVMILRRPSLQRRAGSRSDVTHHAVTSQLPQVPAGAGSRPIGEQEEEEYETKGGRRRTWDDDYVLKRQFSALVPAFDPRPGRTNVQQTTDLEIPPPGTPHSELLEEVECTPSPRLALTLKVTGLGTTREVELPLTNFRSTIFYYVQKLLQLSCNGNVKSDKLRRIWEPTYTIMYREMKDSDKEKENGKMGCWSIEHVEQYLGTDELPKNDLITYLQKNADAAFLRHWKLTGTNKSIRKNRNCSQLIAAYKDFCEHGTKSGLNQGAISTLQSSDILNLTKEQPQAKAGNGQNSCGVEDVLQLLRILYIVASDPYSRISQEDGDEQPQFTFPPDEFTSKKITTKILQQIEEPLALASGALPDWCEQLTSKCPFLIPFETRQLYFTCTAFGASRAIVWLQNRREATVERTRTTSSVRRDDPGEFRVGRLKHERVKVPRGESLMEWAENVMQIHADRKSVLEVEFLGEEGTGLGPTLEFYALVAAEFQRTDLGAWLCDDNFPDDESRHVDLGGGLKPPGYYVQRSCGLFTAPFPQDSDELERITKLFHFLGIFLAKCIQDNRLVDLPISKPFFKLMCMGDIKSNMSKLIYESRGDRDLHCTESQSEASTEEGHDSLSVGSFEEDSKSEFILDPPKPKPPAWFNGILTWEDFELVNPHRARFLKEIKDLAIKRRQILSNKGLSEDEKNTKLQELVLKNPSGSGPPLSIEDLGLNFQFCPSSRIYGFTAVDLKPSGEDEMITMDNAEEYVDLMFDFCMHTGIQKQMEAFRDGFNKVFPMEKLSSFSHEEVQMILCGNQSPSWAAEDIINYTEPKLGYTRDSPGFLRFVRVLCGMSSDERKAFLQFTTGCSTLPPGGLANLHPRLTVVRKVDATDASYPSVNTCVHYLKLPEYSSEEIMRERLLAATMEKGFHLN
# UniProt Q9UHI6: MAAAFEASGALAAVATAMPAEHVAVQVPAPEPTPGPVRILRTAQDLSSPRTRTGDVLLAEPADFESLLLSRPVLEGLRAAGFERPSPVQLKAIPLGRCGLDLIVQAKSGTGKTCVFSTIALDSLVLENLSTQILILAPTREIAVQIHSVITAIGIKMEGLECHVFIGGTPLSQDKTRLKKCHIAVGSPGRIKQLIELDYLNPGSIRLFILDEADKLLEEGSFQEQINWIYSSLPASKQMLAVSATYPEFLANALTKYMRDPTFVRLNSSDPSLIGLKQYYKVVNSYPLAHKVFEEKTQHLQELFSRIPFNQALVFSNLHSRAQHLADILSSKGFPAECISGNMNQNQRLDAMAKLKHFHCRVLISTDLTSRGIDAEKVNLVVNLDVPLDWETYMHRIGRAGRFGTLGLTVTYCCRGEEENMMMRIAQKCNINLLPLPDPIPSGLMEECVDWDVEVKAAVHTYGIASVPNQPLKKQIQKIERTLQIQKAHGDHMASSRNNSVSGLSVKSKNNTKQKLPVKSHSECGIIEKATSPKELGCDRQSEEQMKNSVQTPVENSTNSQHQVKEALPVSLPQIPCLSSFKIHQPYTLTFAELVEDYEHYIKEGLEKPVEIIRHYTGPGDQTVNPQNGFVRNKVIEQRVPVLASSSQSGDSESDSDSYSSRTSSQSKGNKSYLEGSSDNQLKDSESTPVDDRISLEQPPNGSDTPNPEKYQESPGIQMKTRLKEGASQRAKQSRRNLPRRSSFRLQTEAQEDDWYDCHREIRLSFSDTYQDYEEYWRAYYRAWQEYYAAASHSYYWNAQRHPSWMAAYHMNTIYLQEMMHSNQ
# UniProt Q9UKV3: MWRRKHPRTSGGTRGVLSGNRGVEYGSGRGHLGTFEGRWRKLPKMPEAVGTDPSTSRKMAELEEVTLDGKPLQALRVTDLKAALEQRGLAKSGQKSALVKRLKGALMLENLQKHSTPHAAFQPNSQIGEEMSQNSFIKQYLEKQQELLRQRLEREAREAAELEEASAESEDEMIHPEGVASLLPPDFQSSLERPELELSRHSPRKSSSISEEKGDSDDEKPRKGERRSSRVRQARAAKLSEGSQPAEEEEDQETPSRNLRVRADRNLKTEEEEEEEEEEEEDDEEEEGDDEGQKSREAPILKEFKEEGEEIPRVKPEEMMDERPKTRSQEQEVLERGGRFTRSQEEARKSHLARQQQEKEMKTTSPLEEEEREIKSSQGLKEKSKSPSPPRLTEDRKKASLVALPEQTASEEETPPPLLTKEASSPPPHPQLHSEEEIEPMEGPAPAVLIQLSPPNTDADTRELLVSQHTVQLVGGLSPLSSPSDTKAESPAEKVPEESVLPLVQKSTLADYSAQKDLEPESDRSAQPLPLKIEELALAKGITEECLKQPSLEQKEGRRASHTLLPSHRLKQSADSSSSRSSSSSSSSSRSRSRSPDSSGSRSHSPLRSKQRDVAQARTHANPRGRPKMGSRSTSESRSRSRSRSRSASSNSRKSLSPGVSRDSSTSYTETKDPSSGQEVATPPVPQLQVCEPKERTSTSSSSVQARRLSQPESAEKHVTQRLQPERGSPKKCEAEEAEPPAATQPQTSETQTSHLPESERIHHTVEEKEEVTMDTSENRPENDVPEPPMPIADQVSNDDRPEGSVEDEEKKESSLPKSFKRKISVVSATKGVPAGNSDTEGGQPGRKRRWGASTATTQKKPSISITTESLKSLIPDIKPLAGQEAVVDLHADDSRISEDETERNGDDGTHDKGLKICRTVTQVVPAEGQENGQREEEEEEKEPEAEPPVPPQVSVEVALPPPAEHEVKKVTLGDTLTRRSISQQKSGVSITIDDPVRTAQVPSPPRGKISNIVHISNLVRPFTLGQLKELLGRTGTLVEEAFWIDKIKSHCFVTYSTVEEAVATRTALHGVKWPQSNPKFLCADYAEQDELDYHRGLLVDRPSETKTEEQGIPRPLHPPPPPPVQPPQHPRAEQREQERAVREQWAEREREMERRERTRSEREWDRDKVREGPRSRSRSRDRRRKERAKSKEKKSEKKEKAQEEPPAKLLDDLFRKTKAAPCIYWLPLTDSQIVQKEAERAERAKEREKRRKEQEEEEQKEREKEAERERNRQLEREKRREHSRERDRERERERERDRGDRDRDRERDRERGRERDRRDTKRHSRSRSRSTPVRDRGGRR
# UniProt Q9UJX6, whole entry: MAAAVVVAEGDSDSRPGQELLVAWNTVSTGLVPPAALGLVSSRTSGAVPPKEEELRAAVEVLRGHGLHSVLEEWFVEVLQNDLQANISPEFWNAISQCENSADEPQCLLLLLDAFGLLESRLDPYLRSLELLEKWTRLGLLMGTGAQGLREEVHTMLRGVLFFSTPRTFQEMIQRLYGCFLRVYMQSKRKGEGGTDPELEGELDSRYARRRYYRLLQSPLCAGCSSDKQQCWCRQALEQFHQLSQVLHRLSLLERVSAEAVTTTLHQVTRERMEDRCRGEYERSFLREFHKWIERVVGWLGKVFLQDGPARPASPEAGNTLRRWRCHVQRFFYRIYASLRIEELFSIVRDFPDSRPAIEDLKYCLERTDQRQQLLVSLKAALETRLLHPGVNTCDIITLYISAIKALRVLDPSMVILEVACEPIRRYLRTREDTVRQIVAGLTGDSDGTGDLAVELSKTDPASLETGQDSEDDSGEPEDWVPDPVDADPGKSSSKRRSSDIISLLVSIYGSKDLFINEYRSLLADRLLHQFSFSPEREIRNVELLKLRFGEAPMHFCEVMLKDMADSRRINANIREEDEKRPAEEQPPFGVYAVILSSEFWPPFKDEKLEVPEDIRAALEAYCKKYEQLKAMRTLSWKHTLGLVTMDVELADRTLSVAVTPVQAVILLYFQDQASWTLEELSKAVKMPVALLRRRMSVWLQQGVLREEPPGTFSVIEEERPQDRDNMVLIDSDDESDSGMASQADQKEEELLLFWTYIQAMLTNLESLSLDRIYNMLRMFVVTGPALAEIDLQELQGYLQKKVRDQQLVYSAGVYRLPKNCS
# UniProt Q9UMS0: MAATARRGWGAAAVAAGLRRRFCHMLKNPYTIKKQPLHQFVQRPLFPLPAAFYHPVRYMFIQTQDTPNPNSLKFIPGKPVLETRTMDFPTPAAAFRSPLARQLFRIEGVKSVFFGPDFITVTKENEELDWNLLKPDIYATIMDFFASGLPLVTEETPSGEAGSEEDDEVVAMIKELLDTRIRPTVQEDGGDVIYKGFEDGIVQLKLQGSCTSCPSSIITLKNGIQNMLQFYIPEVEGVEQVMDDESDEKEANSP
# Compound: COC(=O)C#Cc1ccccc1 [methyl 3-phenylpropiolate]
# Assay: log2 ratio of iodoacetamide-alkyne labeling of the cysteine site, DMSO over compound (competition); higher = stronger covalent engagement of the cysteine by the compound, active = 1 or more
# Conditions: 500 µM; treatment time 1 h; system: HEK293T cell lysate
# Outline: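 Reporter intensities give each cysteine's log2 competition ratio as the mean of control channels over the mean of compound channels. The samples were HEK293T lysate (2 mg/mL) given vehicle or electrophile (500 µM, 1 h, ambient temperature), then iodoacetamide alkyne (1 h), followed by click coupling to sCIP-TMT reagents, pooling, trypsin digestion overnight at 37 °C, streptavidin enrichment, acid elution, Orbitrap Eclipse LC-MS/MS with FAIMS and FragPipe quantification. Duplicate channels and three replicates were run, and cysteines quantified in only one replicate were discarded.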
row,Target,log2 ratio of iodoacetamide-alkyne labeling
1,VPS4A C359 (UniProt Q9UN37),inactive: 0.151
2,SH3GLB1 C121 (UniProt Q9Y371),inactive: 0.455
3,AGTPBP1 C558 (UniProt Q9UPW5),inactive: -0.228
4,NUDT5 C76 (UniProt Q9UKK9),inactive: 0.157
5,NOSIP C185 (UniProt Q9Y314),inactive: 0.25
6,VPS4A C403 (UniProt Q9UN37),inactive: 0.205
7,TIMELESS C1126 (UniProt Q9UNS1),inactive: 0.807
8,NOSIP C250 (UniProt Q9Y314),inactive: -0.108
9,UniProt Q9UI30_C100,inactive: 0.727
10,RASAL2 C360 (UniProt Q9UJF2),inactive: 0.112
11,SRRM2 C872 (UniProt Q9UQ35),inactive: 0.645
12,HECTD1 C2415 (UniProt Q9ULT8),inactive: 0.0611
13,INO80 C13 (UniProt Q9ULG1),inactive: 0.492
14,DDX20 C538 (UniProt Q9UHI6),inactive: 0.312
15,HERC5 C994 (UniProt Q9UII4),inactive: 0.115
16,EXOC6B C32 (UniProt Q9Y2D4),inactive: 0.526
17,UniProt Q9Y2D5_C296,inactive: 0.394
18,ACIN1 C1052 (UniProt Q9UKV3),inactive: -0.0441
19,DIS3 C799 (UniProt Q9Y2L1),inactive: 0.13
20,ANAPC2 C421 (UniProt Q9UJX6),inactive: 0.311
21,NFU1 C213 (UniProt Q9UMS0),inactive: 0.895
22,SRRM2 C1480 (UniProt Q9UQ35),inactive: 0.319

# In a second layout: results already given.
row | Target | log2 ratio of iodoacetamide-alkyne labeling
8 | NOSIP C250 (UniProt Q9Y314) | inactive: -0.108
21 | NFU1 C213 (UniProt Q9UMS0) | inactive: 0.895

# — the supplement of paper PMC11006884
